Some of the results follow.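 How the source made its calls: active = dose-dependent thermal stabilisation significant by F-test of dose-response against flat model at 10% FDR; inactive = not significant.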
compound: Nc1nc2c(ncn2[C@@H]2O[C@H](COP(=O)(O)OP(=O)(O)OP(=O)(O)O)[C@@H](O)[C@H]2O)c(=O)[nH]1; experiment: dose-dependent thermal stabilisation call (2D-TPP, DLPTP, 10% FDR) (binary (1 = stabilised)); higher = stabilised by the compound; settings: system: Jurkat gel-filtered lysate; concentration range 1-500 µM

The chains behind the UniProt entries cited, without tags or fusion partners. Where a name states a change or a piece, a line headed by the entry shows the natural chain unless it says otherwise.
UniProt Q9NTX7: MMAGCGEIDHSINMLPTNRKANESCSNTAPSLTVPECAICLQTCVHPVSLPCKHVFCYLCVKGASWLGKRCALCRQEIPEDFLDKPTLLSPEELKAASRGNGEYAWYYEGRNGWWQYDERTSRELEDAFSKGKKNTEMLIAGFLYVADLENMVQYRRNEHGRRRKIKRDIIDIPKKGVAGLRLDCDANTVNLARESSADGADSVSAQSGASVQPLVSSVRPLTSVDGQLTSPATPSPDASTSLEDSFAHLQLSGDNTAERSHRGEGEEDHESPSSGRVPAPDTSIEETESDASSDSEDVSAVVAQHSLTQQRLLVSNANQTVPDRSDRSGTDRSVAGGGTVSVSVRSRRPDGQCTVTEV
UniProt P08134, whole entry: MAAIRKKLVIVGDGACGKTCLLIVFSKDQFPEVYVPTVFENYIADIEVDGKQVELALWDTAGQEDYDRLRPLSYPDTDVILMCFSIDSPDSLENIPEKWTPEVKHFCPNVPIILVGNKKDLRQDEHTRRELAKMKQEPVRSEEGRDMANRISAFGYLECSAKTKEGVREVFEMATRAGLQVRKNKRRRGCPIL
UniProt Q99611, whole entry: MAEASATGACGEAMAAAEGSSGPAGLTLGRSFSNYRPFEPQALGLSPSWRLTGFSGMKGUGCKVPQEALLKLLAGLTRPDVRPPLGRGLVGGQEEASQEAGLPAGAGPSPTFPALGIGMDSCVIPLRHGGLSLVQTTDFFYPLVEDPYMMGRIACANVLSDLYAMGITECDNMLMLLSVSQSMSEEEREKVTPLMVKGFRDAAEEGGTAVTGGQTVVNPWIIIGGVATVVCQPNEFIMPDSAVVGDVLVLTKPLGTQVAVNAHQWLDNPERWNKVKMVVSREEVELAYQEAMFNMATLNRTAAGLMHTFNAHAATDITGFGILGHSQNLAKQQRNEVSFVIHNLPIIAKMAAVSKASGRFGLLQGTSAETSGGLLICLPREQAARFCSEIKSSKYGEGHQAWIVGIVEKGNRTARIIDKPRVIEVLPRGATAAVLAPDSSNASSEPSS
UniProt Q14151: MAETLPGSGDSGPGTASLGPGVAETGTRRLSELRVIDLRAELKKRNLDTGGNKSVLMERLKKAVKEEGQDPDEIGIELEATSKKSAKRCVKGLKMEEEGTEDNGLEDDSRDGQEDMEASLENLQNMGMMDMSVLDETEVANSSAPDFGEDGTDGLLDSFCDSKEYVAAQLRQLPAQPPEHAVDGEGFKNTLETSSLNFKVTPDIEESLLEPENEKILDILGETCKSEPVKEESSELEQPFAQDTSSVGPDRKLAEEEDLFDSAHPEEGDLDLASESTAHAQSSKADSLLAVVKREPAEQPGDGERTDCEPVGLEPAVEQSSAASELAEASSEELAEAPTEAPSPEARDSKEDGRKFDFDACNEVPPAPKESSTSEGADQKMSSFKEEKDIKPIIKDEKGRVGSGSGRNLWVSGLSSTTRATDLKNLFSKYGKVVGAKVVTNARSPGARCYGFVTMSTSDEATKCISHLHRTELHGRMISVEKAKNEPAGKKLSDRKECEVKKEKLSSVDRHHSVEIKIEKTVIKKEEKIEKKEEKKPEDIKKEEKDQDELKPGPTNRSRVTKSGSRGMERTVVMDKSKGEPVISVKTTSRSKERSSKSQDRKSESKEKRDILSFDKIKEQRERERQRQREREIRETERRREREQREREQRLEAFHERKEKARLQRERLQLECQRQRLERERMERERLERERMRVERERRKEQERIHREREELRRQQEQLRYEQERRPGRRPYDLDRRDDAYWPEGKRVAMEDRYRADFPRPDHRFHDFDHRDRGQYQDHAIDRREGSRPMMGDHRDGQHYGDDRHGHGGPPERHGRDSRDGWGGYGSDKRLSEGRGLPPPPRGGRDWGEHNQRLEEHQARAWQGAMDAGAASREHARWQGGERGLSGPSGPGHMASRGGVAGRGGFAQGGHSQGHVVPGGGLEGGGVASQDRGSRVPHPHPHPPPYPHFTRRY
UniProt Q96EE3: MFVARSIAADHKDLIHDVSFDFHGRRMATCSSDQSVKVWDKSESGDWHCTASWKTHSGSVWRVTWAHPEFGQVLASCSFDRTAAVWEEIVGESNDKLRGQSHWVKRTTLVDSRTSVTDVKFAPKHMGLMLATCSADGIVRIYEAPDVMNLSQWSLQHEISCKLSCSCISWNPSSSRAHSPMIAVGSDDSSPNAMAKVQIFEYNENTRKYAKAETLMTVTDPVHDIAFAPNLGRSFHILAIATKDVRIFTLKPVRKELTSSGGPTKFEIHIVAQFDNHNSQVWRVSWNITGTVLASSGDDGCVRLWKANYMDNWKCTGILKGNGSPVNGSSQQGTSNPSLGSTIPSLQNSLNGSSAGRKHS
UniProt Q8IZQ5, whole entry: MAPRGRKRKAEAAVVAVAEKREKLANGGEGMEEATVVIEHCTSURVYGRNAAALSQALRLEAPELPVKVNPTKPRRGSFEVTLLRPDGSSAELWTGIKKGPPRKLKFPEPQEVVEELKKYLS
UniProt Q8WVD3: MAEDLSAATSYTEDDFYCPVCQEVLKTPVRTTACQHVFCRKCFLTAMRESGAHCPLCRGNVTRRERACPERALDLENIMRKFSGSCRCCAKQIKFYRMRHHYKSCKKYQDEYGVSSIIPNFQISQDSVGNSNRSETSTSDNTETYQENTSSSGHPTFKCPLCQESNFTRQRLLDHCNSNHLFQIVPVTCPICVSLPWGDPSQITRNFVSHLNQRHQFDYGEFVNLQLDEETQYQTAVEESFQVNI
UniProt Q8N5L8: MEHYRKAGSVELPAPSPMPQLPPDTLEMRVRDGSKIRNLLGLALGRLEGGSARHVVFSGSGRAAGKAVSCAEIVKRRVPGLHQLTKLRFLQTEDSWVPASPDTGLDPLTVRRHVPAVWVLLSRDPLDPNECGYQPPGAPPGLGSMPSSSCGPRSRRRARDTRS
UniProt Q8TA86: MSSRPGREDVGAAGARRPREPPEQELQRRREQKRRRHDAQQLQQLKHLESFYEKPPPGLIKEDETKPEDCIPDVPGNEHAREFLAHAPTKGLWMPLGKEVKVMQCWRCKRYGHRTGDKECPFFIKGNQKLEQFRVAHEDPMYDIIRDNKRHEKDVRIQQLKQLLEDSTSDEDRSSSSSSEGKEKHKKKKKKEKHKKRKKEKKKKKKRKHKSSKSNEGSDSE
UniProt Q6IQ49: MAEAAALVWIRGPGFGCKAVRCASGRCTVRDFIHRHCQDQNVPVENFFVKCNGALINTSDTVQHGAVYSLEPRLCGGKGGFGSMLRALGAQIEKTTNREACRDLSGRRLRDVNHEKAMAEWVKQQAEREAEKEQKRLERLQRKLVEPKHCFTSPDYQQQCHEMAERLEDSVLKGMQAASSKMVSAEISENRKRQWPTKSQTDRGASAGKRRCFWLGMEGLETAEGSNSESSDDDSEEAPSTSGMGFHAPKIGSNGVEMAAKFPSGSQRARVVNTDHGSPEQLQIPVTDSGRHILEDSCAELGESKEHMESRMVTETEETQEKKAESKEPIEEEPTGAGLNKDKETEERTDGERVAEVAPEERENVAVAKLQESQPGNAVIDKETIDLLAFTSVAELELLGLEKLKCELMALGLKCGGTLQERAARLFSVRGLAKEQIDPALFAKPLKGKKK
UniProt Q9BWJ5: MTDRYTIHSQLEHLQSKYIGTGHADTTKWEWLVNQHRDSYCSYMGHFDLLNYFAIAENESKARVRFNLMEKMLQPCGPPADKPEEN
UniProt Q96E14: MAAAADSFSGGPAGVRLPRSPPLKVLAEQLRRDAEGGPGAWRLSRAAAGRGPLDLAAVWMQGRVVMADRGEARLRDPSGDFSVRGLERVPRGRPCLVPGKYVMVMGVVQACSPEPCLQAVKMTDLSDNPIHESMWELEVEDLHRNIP
UniProt Q96EQ0: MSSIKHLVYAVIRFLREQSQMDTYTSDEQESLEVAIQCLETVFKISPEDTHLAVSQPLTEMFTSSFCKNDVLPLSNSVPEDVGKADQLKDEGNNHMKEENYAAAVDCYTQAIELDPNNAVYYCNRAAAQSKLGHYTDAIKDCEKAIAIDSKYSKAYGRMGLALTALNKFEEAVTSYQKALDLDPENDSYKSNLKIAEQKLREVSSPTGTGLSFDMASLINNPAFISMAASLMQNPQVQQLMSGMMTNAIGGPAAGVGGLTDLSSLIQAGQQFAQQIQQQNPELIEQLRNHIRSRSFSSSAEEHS
UniProt Q92766: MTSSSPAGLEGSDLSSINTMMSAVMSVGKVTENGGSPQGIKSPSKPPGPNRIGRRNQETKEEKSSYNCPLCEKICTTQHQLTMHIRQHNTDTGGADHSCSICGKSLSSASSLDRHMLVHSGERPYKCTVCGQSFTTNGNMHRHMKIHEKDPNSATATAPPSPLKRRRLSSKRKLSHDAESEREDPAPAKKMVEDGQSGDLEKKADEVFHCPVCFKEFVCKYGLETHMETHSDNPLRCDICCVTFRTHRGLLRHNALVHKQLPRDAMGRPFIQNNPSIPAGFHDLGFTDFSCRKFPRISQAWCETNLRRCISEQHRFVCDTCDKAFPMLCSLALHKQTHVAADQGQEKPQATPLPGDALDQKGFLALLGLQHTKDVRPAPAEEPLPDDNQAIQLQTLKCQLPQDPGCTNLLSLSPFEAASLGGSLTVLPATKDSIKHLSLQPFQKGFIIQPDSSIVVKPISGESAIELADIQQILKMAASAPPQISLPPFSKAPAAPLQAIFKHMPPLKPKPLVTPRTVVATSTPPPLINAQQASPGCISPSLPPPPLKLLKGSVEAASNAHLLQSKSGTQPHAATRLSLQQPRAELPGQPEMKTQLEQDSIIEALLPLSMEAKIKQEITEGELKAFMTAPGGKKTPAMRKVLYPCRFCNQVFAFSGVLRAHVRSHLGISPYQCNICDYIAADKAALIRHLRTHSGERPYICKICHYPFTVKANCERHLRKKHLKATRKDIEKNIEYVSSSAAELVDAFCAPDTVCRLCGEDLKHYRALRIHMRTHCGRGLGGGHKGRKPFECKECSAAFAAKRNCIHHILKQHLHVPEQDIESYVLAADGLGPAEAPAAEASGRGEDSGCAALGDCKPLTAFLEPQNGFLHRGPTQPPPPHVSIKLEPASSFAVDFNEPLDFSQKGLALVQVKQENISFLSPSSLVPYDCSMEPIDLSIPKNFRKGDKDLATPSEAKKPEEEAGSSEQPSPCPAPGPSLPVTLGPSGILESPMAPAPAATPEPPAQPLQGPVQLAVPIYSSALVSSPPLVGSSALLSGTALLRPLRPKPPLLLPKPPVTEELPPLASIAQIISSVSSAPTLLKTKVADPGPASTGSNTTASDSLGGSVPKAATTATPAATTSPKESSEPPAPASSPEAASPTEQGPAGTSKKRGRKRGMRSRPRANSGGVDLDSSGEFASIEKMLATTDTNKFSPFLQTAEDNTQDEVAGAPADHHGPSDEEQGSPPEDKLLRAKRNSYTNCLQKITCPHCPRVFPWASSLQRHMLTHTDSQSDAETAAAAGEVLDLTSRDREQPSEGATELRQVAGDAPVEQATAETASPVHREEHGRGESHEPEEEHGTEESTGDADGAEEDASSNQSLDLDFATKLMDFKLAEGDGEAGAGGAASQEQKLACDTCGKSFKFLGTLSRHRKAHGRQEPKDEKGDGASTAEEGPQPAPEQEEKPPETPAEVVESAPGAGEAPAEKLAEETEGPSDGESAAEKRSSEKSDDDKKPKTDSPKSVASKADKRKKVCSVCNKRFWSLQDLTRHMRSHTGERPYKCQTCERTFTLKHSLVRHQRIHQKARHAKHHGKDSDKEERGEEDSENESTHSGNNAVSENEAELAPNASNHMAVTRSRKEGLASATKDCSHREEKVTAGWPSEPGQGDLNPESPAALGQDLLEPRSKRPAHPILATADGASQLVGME
UniProt Q9BV68: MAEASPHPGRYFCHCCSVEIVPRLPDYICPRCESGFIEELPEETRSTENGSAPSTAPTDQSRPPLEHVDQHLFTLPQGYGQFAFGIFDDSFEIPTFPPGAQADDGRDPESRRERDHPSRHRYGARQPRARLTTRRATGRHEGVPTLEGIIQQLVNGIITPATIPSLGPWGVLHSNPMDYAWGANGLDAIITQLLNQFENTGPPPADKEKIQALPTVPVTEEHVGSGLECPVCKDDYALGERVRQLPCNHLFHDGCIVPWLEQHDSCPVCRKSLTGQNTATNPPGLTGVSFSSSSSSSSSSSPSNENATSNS
UniProt Q5TA31: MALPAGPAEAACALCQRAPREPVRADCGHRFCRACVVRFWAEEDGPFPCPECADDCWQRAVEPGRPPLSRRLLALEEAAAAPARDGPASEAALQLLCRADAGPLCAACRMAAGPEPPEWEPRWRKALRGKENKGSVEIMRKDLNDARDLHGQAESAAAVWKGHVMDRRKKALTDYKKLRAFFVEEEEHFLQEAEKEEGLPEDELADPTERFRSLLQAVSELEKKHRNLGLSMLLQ
UniProt Q96ES7: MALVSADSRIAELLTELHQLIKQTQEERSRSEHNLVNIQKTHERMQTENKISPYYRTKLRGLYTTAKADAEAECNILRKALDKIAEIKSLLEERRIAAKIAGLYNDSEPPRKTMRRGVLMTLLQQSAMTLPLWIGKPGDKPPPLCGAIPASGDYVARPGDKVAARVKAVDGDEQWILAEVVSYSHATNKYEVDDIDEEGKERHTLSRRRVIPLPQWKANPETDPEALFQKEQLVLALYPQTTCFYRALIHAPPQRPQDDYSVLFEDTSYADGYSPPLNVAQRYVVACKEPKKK

Row | Target | dose-dependent thermal stabilisation call
1 | SAE1 (UniProt Q9UBE0) | inactive: 0
2 | RPAP2 (UniProt Q8IXW5) | inactive: 0
3 | RNF146 (UniProt Q9NTX7) | inactive: 0
4 | RHOC (UniProt P08134) | active: 1
5 | RPS27A (UniProt P62979) | inactive: 0
6 | RNF213 (UniProt Q63HN8) | inactive: 0
7 | SEPHS2 (UniProt Q99611) | inactive: 0
8 | SAFB2 (UniProt Q14151) | inactive: 0
9 | RTN3 (UniProt O95197) | inactive: 0
10 | SEH1L (UniProt Q96EE3) | inactive: 0
11 | SELENOH (UniProt Q8IZQ5) | inactive: 0
12 | RNF138 (UniProt Q8WVD3) | inactive: 0
13 | RPP25L (UniProt Q8N5L8) | inactive: 0
14 | SEC24C (UniProt P53992) | inactive: 0
15 | RNF168 (UniProt Q8IYW5) | inactive: 0
16 | RP9 (UniProt Q8TA86) | inactive: 0
17 | RPL5 (UniProt P46777) | active: 1
18 | RPA2 (UniProt P15927) | inactive: 0

Row | Target | dose-dependent thermal stabilisation call
19 | RNF20 (UniProt Q5VTR2) | inactive: 0
20 | SENP7 (UniProt Q9BQF6) | inactive: 0
21 | RELA (UniProt Q04206) | inactive: 0
22 | RXRB (UniProt P28702) | inactive: 0
23 | RFC4 (UniProt P35249) | active: 1
24 | SEPTIN2 (UniProt Q15019) | active: 1
25 | SDE2 (UniProt Q6IQ49) | inactive: 0
26 | RPLP0 (UniProt P05388) | inactive: 0
27 | SF3B5 (UniProt Q9BWJ5) | inactive: 0
28 | RMI2 (UniProt Q96E14) | inactive: 0
29 | RPL37 (UniProt P61927) | inactive: 0
30 | SGTB (UniProt Q96EQ0) | inactive: 0
31 | RREB1 (UniProt Q92766) | inactive: 0
32 | RNF126 (UniProt Q9BV68) | inactive: 0
33 | RNF187 (UniProt Q5TA31) | inactive: 0
34 | RNF141 (UniProt Q8WVD5) | inactive: 0
35 | SGF29 (UniProt Q96ES7) | inactive: 0
36 | RYDEN (UniProt Q9NUL5) | inactive: 0

From the supplement of paper PMC7666118
